These are yes or no findings as the source states them, for the method shown. For some assays here: In cells and extracts the contact can be indirect. Some binding calls cover weakened binding; strength is not graded here. For some assays here: Where a sequence is shown, tags or fusion partners need not be part of it.
T1: pGBKT7-full length FAIM-L (long isoform of Fas apoptosis inhibitory molecule) (UniProt Q9NVQ4)
T1 sequence: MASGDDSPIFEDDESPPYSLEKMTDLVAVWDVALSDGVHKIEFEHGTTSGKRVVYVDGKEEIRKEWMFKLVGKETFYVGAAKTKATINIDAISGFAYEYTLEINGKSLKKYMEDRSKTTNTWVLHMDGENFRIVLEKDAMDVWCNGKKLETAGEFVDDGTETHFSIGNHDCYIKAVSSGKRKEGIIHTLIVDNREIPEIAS

The chains behind the UniProt entries cited, without tags or fusion partners.
UniProt P98170: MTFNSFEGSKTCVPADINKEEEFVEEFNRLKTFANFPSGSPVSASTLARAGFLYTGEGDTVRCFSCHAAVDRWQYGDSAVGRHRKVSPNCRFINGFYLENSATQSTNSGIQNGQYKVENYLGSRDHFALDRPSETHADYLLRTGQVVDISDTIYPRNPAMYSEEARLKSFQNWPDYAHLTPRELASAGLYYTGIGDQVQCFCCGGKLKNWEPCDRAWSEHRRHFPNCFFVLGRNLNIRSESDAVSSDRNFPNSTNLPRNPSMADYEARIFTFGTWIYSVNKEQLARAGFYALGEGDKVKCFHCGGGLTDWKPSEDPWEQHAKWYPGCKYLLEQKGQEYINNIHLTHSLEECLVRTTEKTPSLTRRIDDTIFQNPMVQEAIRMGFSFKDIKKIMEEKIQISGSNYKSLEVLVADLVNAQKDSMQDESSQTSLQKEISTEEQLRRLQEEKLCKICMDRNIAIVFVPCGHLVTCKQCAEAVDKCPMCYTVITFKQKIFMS

T2: pGBKT7-N-term FAIM-L (22 N-terminal-specific amino acids of FAIM-L)
T2 sequence: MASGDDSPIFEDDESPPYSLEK

T3: 3xFLAG-FAIM-L (UniProt Q9NVQ4)
T3 sequence: T1 sequence

B1: COMMD1, two-hybrid prey (domain or fragment)
chain: EGGKSLSGLLSGLAQNAFHGHSGVTEELLHSQLYPEVPPEEFRPFLAKMRGLLKSIASADMDFNQLEAFLTAQTKKQGGITSEQAAVISKFWKSHKIKIRESLMKQSRWDNGLRGLSWRVDGKSQSRHSTQIHSPVAIIELEFGKNGQESEFLCLEFDEVKVKQILKKLSEVEESINRLMQAA
B2: AP2m1, two-hybrid prey (domain or fragment)
chain: PKRACQFNRTQLGDCSGIGDPTHYGYSTGQPCVFIKMNRVINFYAGANQSMNVTCVGKRDEDAENLGHFVMFPANGSIDLMYFPYYGKKFHVNYTQPLVAVKFLNVTPNVEVNVECRINAANIATDDERDKFAGRVAFKLRINKT
B3: Calcyclin, two-hybrid prey (domain or fragment)
chain: DKFVKIYITLTGVHQVPTENVQVHFTERSFDLLVKNLNGKNYSMIVNNLLKPISVESSSKKVKTDTVIILCRKKAENTRWDYLTQVEKECKEKE
B4: FERM RhoGEF, two-hybrid prey (domain or fragment)
chain: HELKKDLIGIDNLVTPGREFIRLGSLSKLSGKGLQQRMFFLFNDVLLYTSRGLTASNQFKVHGQLPLYGMTIEESEEEWGVPHCLTLRGQRQSIIVAASSRSEMEKWMEDIQMAIDLAEKSNGPTPELLASSPPDNKSPDEA
B5: 3xHA-SIVA-1 (protein, UniProt O54926 1-175)
chain: MPKRSCPFADAAPLQLKVHVGLKELSHGVFAERYSREVFERTKQLLFQGARAYRDHISSEDCSVNHLQESLKSGVVGAPQPARGQMLIGPDGRLTRCQAQASEGGLPRTAPIACSSCMRSVDGKAVCSQCERALCGQCVYTCWGCGALACVLCGLADYADDGEKTLCTSCAMFEA
B6: 3xFLAG-FAIM-L (protein, UniProt Q9NVQ4-3 1-201)
chain: T1 sequence
B7: 3xFLAG-SIVA-1 (protein, UniProt O15304 1-175)
chain: MPKRSCPFADVAPLQLKVRVSQRELSRGVCAERYSQEVFEKTKRLLFLGAQAYLDHVWDEGCAVVHLPESPKPGPTGAPRAARGQMLIGPDGRLIRSLGQASEADPSGVASIACSSCVRAVDGKAVCGQCERALCGQCVRTCWGCGSVACTLCGLVDCSDMYEKVLCTSCAMFET

Biological target: T1, pGBKT7-full length FAIM-L (long isoform of Fas apoptosis inhibitory molecule)
Test: two-hybrid; Matchmaker two-hybrid system 3, by mating; baits in pGBKT7 (Y187), pACT2-mouse cDNA library preys (AH109); selection without leucine, tryptophan and histidine, with 20 mM aminotriazole; confirmed by back transformation in yeast

| binding | Binder |
| --- | --- |
| binds | B1 |
| binds | MPKRSCPFADAAPLQLKVHVGLKELSHGVFAERYSREV (domain or fragment) [SIVA-1 (ΔSIVA-1), N-terminal fragment of SIVA-1, two-hybrid prey] |
| binds | YSNRMVDLMAYMASKE (domain or fragment) [GAPDH, two-hybrid prey] |
| binds | B2 |
| binds | B3 |
| binds | B4 |

Biological target: T2, pGBKT7-N-term FAIM-L (22 N-terminal-specific amino acids of FAIM-L)
Test: as above

| binding | Binder |
| --- | --- |
| binds | B1 |
| binds | MPKRSCPFADAAPLQLKVHVGLKELSHGVFAERYSREV (domain or fragment) [SIVA-1 (ΔSIVA-1), N-terminal fragment of SIVA-1, two-hybrid prey] |
| binds | YSNRMVDLMAYMASKE (domain or fragment) [GAPDH, two-hybrid prey] |
| binds | B2 |
| binds | B3 |
| binds | B4 |

Biological target: T3, 3xFLAG-FAIM-L
Test: co-IP; HEK293T cells transfected; FLAG-FAIM-L immunoprecipitated with FLAG M2 Affinity agarose beads, blot anti-HA; 10 µM MG132 used to impair the degradation of ΔSIVA-1; IP lysis buffer 20 mM Tris/HCl pH 7.4, 150 mM NaCl, 2 mM EDTA, 10% glycerol, 1% Triton X-100, overnight at 4 °C

| binding | Binder |
| --- | --- |
| binds | MPKRSCPFADAAPLQLKVHVGLKELSHGVFAERYSREV (domain or fragment) [3xHA-ΔSIVA-1] |
| binds | B5 |

Biological target: 6xMyc-XIAP (X-linked inhibitor of apoptosis protein) (UniProt P98170)
Test: co-IP; PC12 cells transiently transfected with Myc-XIAP, FLAG-FAIM-L and two concentrations of HA-SIVA-1; Myc-XIAP immunoprecipitated with anti-Myc antibody, blot anti-FLAG and anti-HA

| binding | Binder |
| --- | --- |
| binds | B6 |

Biological target: 6xMyc-XIAP (X-linked inhibitor of apoptosis protein) (UniProt P98170)
Test: co-IP; cells transiently transfected with Myc-XIAP, FLAG-FAIM-L and FLAG-SIVA-1 (cell line not given); Myc-XIAP immunoprecipitated with anti-Myc antibody and protein G, blot anti-FLAG

| binding | Binder |
| --- | --- |
| binds | B7 |
| binds | B6 |

Source: PMC6997380
